{"sequences": {"note": "Chains of the proteins cited; added tags and fusions are not shown.", "UniProt P48431": "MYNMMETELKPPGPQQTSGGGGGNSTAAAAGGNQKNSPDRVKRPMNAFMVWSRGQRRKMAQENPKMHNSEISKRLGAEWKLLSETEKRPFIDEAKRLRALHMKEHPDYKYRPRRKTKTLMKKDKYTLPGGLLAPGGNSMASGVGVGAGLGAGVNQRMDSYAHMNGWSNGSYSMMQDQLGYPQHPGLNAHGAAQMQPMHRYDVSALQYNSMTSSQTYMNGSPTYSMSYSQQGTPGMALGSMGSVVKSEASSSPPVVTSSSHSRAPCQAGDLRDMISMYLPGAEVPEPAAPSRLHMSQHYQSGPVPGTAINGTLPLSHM", "UniProt Q93009": "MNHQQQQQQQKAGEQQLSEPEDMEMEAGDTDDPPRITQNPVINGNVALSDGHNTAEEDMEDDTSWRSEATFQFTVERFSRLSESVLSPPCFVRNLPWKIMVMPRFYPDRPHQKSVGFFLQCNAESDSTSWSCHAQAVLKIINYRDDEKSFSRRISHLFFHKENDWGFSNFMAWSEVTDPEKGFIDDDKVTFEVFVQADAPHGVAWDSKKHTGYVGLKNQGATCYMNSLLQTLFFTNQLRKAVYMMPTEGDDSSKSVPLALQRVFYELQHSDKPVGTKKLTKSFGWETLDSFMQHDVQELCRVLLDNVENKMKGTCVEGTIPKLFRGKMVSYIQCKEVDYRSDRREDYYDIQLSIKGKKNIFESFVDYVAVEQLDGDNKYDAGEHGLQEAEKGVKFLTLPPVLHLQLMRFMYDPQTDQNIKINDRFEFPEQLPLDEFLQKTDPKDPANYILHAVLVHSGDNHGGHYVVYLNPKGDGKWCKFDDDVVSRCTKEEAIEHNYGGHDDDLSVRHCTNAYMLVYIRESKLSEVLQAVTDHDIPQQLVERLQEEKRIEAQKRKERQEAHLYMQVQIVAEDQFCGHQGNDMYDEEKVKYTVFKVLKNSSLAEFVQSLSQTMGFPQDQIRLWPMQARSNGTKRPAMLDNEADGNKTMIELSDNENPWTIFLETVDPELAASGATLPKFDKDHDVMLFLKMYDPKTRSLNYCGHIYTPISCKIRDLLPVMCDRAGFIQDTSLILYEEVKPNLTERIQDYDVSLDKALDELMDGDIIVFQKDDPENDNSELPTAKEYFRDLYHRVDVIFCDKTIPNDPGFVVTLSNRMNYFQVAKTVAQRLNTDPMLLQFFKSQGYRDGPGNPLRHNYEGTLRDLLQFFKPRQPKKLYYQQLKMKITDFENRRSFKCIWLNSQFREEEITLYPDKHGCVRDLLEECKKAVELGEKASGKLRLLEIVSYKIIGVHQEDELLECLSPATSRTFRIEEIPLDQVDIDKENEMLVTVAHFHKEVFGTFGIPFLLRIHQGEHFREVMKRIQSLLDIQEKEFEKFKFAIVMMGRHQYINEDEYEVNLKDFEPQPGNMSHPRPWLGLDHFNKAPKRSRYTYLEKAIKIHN"}, "source": "paper doi:10.1101/2021.06.09.447550", "key": {"Flag-SOX2 (human)": {"target": "Flag-SOX2 (human) (UniProt P48431)", "assay": "co-IP"}, "[1]": {"target": "SOX2 (endogenous) (human (endogenous in GSCs from human GBM)) (UniProt P48431)", "assay": "co-IP"}}, "note": "Results are given in words; binding and its absence hold for the method and conditions named. Binding seen in cells or lysates may run through a third protein. Some entries that bind do so weakly or less than the wild type."}
{"substance": "HAUSP (Herpesvirus-Associated Ubiquitin-Specific Protease) (from UniProt Q93009 1-1102) (enzyme)", "values": [{"measurement": "binding", "setting": "Flag-SOX2 (human)", "value": "binds"}, {"measurement": "binding", "setting": "[1]", "value": "binds"}]}
